Laboratory results published in PMC7733513.
Read-outs that look alike come from different tables or passages of the source. These are yes or no findings as the source states them, for the method shown. In cells and extracts the contact can be indirect. Binding calls can cover weak binding; strength is not graded here.

Chains of the proteins cited; added tags and fusions are not shown. Lines headed by an entry give the natural chain unless they say otherwise; changes in a name come on top.
UniProt Q02383: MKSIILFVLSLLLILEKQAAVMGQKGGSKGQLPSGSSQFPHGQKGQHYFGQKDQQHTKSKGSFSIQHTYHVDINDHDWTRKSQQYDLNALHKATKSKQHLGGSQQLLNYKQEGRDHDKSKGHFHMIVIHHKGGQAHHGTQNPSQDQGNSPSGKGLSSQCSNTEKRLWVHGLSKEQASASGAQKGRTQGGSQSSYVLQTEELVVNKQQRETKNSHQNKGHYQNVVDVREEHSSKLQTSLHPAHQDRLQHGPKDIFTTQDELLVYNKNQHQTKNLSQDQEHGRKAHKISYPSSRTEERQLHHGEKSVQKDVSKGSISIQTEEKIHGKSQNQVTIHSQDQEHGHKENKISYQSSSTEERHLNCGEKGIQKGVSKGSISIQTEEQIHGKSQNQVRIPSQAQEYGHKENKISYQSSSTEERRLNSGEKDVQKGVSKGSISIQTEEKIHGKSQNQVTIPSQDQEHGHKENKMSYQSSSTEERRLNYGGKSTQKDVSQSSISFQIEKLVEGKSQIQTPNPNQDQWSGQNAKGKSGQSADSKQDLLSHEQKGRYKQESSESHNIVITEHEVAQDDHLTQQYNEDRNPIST

Columns and labels:
[1] = target: GST-SEMG2 (truncated SEMG2 lacking the signal peptide, 23-562 a.a.) (human) (UniProt Q02383); test: pull-down; 50 µg GST-SEMG1 or GST-SEMG2 (GST as control) incubated 3 h with MCF7 cell extract pre-incubated with GST; western blot with antibodies against LDHA, PKM2 and IDH2; only the target purified
[2] = target: GST-SEMG2 (truncated SEMG2 lacking the signal peptide, 23-562 a.a.) (human) (UniProt Q02383); test: as above; remark: listed apart in the source

Row | Molecule | binding [1] | binding [2]
1 | pyruvate kinase M2 (PKM2), endogenous in MCF7 cell extract (from UniProt P14618-1 1-531) (enzyme) | binds | 
2 | IDH2, endogenous in MCF7 cell extract (enzyme, UniProt P48735 40-452) ADKRIKVAKPVVEMDGDEMTRIIWQFIKEKLILPHVDIQLKYFDLGLPNRDQTDDQVTIDSALATQKYSVAVKCATITPDEARVEEFKLKKMWKSPNGTIRNILGGTVFREPIICKNIPRLVPGWTKPITIGRHAHGDQYKATDFVADRAGTFKMVFTPKDGSGVKEWEVYNFPAGGVGMGMYNTDESISGFAHSCFQYAIQKKWPLYMSTKNTILKAYDGRFKDIFQEIFDKHYKTDFDKNKIWYEHRLIDDMVAQVLKSSGGFVWACKNYDGDVQSDILAQGFGSLGLMTSVLVCPDGKTIEAEAAHGTVTRHYREHQKGRPTSTNPIASIFAWTRGLEHRGKLDGNQDLIRFAQMLEKVCVETVESGAMTKDLAGCIHGLSNVKLNEHFLNTTDFLDTIKSNLDRALGRQ |  | binds
